According to the supplement of paper PMC10849652:
This is one part of the list.

Sequences of proteins named here, by UniProt entry; tags and fusion partners are left off. A change or cut given only in a name is not applied to a line headed by its entry.
UniProt P00403, whole entry, looked up: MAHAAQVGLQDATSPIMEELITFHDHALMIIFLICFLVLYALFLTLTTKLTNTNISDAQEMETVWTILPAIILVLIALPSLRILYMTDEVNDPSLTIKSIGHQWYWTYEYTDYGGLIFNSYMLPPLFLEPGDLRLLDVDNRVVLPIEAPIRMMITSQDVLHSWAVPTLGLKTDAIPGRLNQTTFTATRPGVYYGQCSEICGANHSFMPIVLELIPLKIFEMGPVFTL
UniProt Q6P444: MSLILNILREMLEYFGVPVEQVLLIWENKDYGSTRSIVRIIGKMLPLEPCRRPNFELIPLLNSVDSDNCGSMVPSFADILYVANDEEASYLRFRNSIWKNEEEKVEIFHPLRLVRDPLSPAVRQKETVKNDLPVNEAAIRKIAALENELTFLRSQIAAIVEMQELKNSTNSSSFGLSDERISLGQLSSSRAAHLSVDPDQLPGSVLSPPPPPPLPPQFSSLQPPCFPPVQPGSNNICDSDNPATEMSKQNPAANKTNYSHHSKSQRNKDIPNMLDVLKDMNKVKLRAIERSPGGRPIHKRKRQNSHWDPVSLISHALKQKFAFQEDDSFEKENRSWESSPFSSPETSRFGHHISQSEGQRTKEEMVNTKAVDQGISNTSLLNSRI
UniProt Q13330: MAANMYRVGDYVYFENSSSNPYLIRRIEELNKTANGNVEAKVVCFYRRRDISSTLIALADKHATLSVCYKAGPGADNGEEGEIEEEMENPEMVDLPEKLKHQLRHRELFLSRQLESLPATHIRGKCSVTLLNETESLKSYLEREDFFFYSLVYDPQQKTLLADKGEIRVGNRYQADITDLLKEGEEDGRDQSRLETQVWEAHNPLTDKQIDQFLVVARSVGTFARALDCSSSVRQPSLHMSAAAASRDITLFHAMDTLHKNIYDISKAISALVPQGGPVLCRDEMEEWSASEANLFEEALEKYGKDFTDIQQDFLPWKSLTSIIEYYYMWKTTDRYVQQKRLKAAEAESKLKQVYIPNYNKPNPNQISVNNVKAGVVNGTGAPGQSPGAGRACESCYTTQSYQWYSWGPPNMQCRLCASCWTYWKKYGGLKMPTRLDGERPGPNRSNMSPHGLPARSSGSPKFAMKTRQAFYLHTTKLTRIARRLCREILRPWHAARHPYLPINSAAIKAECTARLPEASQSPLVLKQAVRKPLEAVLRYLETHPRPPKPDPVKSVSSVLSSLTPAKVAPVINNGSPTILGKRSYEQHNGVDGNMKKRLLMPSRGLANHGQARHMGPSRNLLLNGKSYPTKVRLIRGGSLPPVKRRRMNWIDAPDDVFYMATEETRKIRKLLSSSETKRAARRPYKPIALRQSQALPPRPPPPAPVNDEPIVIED
UniProt P08590, whole entry, looked up: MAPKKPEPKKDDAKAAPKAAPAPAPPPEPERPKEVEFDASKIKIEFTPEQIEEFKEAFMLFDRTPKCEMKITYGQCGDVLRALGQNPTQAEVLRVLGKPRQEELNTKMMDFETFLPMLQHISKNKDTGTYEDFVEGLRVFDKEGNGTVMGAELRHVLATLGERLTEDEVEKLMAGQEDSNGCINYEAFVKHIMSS
UniProt Q96DP5: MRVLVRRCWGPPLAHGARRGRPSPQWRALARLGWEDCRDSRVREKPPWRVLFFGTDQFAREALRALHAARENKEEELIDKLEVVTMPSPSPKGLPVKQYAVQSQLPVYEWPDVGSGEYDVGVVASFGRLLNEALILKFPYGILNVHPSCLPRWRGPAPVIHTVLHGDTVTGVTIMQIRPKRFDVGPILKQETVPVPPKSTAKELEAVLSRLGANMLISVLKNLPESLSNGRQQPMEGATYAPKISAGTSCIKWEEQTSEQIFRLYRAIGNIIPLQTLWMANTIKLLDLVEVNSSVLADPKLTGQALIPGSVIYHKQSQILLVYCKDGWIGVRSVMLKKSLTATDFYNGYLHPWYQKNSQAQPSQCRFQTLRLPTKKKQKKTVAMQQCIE
UniProt Q969V6: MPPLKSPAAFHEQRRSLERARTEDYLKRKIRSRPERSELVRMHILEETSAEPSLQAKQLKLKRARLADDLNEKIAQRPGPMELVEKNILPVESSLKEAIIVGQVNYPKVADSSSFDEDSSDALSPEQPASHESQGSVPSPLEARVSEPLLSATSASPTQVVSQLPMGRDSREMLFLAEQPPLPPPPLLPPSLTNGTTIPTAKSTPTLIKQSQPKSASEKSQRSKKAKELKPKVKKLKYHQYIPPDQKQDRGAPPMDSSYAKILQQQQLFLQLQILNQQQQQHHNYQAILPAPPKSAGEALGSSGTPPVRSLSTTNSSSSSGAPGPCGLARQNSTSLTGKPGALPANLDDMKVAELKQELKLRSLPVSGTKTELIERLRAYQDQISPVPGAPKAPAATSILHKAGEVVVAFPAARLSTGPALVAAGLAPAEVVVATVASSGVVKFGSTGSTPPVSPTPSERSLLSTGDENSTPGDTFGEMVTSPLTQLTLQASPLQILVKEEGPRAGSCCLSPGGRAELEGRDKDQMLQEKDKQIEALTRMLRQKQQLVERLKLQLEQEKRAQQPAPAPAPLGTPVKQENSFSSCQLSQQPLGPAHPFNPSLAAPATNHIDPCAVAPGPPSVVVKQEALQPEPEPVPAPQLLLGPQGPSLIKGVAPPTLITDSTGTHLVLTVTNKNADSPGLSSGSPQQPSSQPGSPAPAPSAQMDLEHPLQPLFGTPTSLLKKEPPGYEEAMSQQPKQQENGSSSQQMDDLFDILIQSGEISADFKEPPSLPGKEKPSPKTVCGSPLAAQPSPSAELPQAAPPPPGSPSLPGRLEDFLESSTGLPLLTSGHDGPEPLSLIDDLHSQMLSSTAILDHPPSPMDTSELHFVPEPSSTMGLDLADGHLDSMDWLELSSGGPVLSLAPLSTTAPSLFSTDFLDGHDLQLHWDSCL
UniProt Q86UE4: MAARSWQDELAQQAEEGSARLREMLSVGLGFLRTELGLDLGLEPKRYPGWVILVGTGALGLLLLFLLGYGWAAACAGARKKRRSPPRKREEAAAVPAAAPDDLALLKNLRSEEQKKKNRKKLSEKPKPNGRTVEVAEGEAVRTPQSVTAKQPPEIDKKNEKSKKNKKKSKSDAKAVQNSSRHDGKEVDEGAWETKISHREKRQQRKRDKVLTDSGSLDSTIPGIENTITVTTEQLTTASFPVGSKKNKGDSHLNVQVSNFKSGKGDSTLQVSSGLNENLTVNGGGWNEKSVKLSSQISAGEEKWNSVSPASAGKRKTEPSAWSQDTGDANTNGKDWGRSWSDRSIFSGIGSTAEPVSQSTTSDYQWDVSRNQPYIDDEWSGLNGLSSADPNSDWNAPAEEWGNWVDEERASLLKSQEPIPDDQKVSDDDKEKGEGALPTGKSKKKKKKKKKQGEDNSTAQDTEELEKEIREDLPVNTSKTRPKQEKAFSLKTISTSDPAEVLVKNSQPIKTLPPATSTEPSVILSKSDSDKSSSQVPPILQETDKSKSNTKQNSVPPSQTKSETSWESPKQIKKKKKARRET
UniProt P35579, whole entry, looked up: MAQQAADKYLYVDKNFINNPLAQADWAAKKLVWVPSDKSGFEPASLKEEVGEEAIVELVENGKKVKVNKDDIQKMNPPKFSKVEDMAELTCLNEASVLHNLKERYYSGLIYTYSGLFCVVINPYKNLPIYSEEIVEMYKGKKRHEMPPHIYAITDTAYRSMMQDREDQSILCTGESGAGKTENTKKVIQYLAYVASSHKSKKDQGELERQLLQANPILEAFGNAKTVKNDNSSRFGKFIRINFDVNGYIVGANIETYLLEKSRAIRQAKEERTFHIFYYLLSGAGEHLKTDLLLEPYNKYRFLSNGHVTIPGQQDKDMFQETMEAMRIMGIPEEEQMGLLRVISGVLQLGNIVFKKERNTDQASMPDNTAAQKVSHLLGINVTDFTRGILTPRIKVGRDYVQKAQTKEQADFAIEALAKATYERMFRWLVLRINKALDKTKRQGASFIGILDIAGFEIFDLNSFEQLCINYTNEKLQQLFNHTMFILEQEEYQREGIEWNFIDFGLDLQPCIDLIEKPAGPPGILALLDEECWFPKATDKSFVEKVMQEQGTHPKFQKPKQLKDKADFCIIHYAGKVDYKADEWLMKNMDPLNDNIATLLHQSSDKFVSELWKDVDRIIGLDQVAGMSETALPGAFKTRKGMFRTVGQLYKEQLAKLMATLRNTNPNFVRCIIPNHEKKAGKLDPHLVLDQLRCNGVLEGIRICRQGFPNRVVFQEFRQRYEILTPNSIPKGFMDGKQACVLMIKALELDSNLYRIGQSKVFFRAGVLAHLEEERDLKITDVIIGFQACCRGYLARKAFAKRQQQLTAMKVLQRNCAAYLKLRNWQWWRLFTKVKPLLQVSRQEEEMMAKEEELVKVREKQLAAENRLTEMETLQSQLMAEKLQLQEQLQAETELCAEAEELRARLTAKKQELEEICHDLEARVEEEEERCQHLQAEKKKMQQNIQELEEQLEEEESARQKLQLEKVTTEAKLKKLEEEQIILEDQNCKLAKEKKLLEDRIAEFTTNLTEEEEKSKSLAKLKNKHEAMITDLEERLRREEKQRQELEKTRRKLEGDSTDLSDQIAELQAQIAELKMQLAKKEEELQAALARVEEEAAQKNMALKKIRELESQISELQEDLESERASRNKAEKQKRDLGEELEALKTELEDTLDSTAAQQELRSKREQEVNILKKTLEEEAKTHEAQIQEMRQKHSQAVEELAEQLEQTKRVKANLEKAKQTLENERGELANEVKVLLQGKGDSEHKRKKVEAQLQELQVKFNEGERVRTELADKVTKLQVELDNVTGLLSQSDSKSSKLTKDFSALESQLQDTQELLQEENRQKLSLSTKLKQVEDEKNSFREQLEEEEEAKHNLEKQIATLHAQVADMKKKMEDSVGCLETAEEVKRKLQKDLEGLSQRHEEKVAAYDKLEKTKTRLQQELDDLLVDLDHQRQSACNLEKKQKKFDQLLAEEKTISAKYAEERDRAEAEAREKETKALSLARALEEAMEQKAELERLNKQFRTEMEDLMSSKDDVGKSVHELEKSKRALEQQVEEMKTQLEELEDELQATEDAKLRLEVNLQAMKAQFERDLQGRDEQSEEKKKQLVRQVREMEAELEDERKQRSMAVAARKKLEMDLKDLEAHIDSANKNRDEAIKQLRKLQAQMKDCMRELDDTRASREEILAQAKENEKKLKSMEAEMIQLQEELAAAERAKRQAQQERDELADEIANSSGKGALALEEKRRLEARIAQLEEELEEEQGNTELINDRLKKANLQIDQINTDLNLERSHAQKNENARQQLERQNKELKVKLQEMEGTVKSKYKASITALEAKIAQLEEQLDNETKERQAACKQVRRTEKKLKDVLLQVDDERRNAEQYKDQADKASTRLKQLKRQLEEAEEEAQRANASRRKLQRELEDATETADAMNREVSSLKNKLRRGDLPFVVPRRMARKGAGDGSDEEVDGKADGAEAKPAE
UniProt Q6UB35, whole entry, looked up: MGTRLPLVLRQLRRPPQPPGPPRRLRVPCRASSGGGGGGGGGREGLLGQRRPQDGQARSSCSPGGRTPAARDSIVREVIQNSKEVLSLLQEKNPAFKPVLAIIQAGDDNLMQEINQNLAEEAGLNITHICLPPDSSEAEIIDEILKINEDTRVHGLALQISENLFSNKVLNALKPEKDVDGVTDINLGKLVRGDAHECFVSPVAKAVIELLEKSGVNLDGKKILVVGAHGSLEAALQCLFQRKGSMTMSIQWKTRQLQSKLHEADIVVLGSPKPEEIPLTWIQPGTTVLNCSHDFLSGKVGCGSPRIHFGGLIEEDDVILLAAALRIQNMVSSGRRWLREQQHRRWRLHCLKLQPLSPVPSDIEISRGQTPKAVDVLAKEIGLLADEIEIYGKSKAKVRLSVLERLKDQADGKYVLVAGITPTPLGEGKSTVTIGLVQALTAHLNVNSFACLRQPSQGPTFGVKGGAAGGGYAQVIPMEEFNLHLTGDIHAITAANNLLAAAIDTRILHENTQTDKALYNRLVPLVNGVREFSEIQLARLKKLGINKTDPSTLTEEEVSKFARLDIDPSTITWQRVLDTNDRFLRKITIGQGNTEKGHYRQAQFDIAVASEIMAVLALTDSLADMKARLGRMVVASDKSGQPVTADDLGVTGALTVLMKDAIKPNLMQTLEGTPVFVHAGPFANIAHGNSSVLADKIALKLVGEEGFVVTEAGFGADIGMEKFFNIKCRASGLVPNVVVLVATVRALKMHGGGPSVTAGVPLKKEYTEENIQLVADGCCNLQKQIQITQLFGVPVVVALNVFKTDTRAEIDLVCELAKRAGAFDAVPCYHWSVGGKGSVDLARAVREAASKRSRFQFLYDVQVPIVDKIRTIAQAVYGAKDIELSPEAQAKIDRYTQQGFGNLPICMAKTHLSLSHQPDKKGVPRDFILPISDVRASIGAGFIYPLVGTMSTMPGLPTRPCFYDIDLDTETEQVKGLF
UniProt G3V1V0: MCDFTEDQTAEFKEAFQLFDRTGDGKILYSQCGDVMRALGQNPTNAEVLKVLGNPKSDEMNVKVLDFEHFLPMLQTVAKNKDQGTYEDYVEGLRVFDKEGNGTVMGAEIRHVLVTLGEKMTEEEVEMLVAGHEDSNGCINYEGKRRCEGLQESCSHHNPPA
UniProt P03928: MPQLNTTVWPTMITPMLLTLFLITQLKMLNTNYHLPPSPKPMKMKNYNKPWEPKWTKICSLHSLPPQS

These targets were tested with c1cn2cc(-c3ccc4cn[nH]c4c3)nc(Nc3ccc(N4CCOCC4)cc3)c2n1 [entospletinib] (assay: log2 fold change, soluble protein after heating vs DMSO (PISA); higher = thermal stabilisation; K562 cells, 10 uM, 30 min; active = over 0.2 and 3.5 SD of the protein, either way, in both replicates (recomputed)).
Summary of the method: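 Quantification of soluble protein used TMTpro 16plex LC-MS/MS, with channel sums equalised. Samples were the supernatant after 21,000xg for 90 min of pooled aliquots from K562 cells (2×10^6 cells/mL) treated with 10 μM compound for 30 min, heated for 3 min over 48°C-58°C, and extracted in PBS with 0.5% NP-40 at 4°C. Values, from duplicates, describe thermal stability against control samples on a log2 fold-change scale.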

log2 fold change, inactive:
MT-CO2 (UniProt P00403) 0.002
MYO1C (UniProt O00159) 0.061
MRTO4 (UniProt Q9UKD2) -0.009
MTFR2 (UniProt Q6P444) 0.004
MTR (UniProt Q99707) 0.145
MYDGF (UniProt Q969H8) 0.016
MSI1 (UniProt O43347) 0.208
MTMR12 (UniProt Q9C0I1) -0.001
MRPS36 (UniProt P82909) 0.041
MTA1 (UniProt Q13330) -0.048
MTCH2 (UniProt Q9Y6C9) 0.042
MYL3 (UniProt P08590) 0.091
MTFMT (UniProt Q96DP5) 0.091
MRPL58 (UniProt Q14197) 0.04
MYO18B isoform 3 (UniProt Q8IUG5) 0.3
MRTFA (UniProt Q969V6) 0.01
MTDH (UniProt Q86UE4) 0.12
MYH9 (UniProt P35579) -0.083
MT-CO1 (UniProt P00395) 0.073
MTHFD1L (UniProt Q6UB35) 0.007
MT-ND6 (UniProt P03923) -0.049
MYH15 (UniProt Q9Y2K3) -0.033
MYH3 (UniProt P11055) 0.286
MRTFB isoform 5 (UniProt Q9ULH7) -0.031
MYL6 (UniProt G3V1V0) 0.122
MYBBP1A isoform 2 (UniProt Q9BQG0) -0.056
MTMR3 (UniProt Q13615) 0.004
MUC1, A0A087WWM1 0.093
MTCH2 (UniProt E9PIE4) -0.027
MT-ATP8 (UniProt P03928) 0.164

Seven neighbouring entries out of the list so far, for reference:
log2 fold change, inactive:
MYH15 (UniProt Q9Y2K3) -0.033
MYH3 (UniProt P11055) 0.286
MRTFB isoform 5 (UniProt Q9ULH7) -0.031
MYL6 (UniProt G3V1V0) 0.122
MYBBP1A isoform 2 (UniProt Q9BQG0) -0.056
MTMR3 (UniProt Q13615) 0.004
MUC1, A0A087WWM1 0.093
